The supplement of paper PMC4604168 (melanoma cell lines)
The list shows a part of the results. Single values are uncertain, as repeats are few or missing.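 Imaging used 1,536-well plates; nuclei positive for cleaved PARP by antibody were divided by total DNA-stained nuclei to yield the apoptosis fraction. Doses for screening kept most cells viable, and cell lines differ markedly in resting and induced cleaved-PARP levels.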

system: COLO800; experiment: cleaved PARP positive nuclei fraction relative to DMSO control; melanoma cells; higher = more apoptosis; details: library dose: low library concentration; 72 h

Compound | cleaved PARP positive nuclei fraction [%]
O=C(O)c1ccc2c(c1)nc(Nc1cccc(Cl)c1)c1ccncc12 + O=C(Nc1cccc(Cl)c1)Nc1ncc(CCNc2ncnc3ccsc23)s1 [SNS314] (first compound 0.4 µM, partner dose 0.0008 µM) | 198
Nc1nc(F)nc2c1ncn2[C@@H]1O[C@H](CO)[C@@H](O)[C@@H]1O [fludarabine] + C=CCn1c(=O)c2cnc(Nc3ccc(N4CCN(C)CC4)cc3)nc2n1-c1cccc(C(C)(C)O)n1 [MK1775] (first compound 0.2 µM, partner dose 0.02 µM) | 167
Nc1ccn([C@@H]2O[C@H](CO)[C@@H](O)C2(F)F)c(=O)n1 [gemcitabine] + COc1cc(Nc2ncc(F)c(Nc3ccc4c(n3)NC(=O)C(C)(C)O4)n2)cc(OC)c1OC [Tamatinib] (first compound 0.0004 µM, partner dose 0.4 µM) | 116
Cn1c(=O)n(-c2ccc(C(C)(C)C#N)cc2)c2c3cc(-c4cnc5ccccc5c4)ccc3ncc21 + COc1cc2c(Oc3ccc4[nH]c(C)cc4c3F)ncnc2cc1OCCCN1CCCC1 [cediranib] (first compound 0.004 µM, partner dose 0.4 µM) | 39.5
Cc1cc(Nc2cc(N3CCN(C)CC3)nc(/C=C/c3ccccc3)n2)n[nH]1 + NC(=O)Nc1cc(-c2cccc(F)c2)sc1C(=O)N[C@H]1CCCNC1 [AZD7762] (first compound 0.04 µM, partner dose 0.02 µM) | 122
Nc1nc(F)nc2c1ncn2[C@@H]1O[C@H](CO)[C@@H](O)[C@@H]1O [fludarabine] + O=C(Nc1cccc(Cl)c1)Nc1ncc(CCNc2ncnc3ccsc23)s1 [SNS314] (first compound 0.2 µM, partner dose 0.0008 µM) | 106

Copied from the listing for reference:
Compound | cleaved PARP positive nuclei fraction [%]
Cn1c(=O)n(-c2ccc(C(C)(C)C#N)cc2)c2c3cc(-c4cnc5ccccc5c4)ccc3ncc21 + COc1cc2c(Oc3ccc4[nH]c(C)cc4c3F)ncnc2cc1OCCCN1CCCC1 [cediranib] (first compound 0.004 µM, partner dose 0.4 µM) | 39.5
Cc1cc(Nc2cc(N3CCN(C)CC3)nc(/C=C/c3ccccc3)n2)n[nH]1 + NC(=O)Nc1cc(-c2cccc(F)c2)sc1C(=O)N[C@H]1CCCNC1 [AZD7762] (first compound 0.04 µM, partner dose 0.02 µM) | 122
